# Values quoted from earlier work as cited in patent publication US20120046302A1, “METHODS OF TREATING CNS DISORDERS” (priority 2008, published 2012).
# Where two headings read alike, the source gives them in different places. At least one compound was matched to its structure with a doubt left.
# System: ICV ouabain-induced motoric hyperactivity
# Conditions: El-Mallakh et al. 2003, cited from earlier work
compound,measurement,setting,value
[Li] [Lithium],Open field exploratory activity,"lithium alone, without ouabain",79.3±53.3 squares traversed
same,Open field exploratory activity,lithium pretreatment before ICV ouabain,75.8±94.7 squares traversed
